Literature values in patent US5612208A, “Ascorbate oxidase, gene encoding the same, process for producing the same, and reagent composition using the same” (Amano Pharmaceutical Co., Ltd., priority 1994, dated 1997).
At least one structure is not confirmed: it was looked up by name or label, or the drawing left a doubt.

How the values were obtained:
[1] = tested on: ascorbate oxidase (ASO) of Acremonium sp. HI-25; settings: data from Biosci. Biotechnol. Biochem., 56 (6), 847-852 (1992) & JP-A-3-236766; cited from earlier work
[2] = tested on: ascorbate oxidase (ASO) from spores of Myrothecium verrucaria; settings: data from Nihon Eiyo-Shokuryo Gakkaishi, 40, (1), 47-51 (1987); cited from earlier work
[3] = molecular target: T1, ascorbate oxidase (ASO) of cucumber (Cucumis sativus, UniProt P14133); settings: data from J. Biochem., 64 189 (1968); cited from earlier work
T1 construct: cucumbers (T. Nakamura, N. Makino and Y. Ogura, J. Biochem., Vol. 64, p. 189 (1968)); host or cells: enzyme isolated from cucumbers
T1 sequence (P14133 34-587): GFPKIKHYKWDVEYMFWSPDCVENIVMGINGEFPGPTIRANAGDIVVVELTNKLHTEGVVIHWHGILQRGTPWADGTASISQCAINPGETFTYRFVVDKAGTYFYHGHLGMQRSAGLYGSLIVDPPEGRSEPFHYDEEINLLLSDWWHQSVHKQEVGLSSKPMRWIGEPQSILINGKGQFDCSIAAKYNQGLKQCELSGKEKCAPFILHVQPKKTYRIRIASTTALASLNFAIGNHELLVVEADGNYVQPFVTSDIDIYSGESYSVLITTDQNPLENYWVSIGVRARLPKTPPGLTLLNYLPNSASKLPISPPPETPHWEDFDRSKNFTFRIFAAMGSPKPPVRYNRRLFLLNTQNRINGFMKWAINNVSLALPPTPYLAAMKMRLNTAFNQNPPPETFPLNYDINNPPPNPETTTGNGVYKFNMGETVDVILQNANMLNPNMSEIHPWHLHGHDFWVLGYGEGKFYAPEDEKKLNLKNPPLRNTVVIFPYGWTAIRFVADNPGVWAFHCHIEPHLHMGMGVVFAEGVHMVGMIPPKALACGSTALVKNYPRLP

CCN(CC)C(=S)S [diethyldithiocarbamate]
Inhibition by inhibitor, in words [1]: uninhibited | Inhibition by inhibitor, in words [2]: inhibited | Inhibition by inhibitor, in words [3]: inhibited
